Measurements reported in PubChem BioAssay AID602196 (INSERM, 2012)

Test: 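Modifiers of cisplatin sensitivity in A549 cells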
Cells: human A549 lung cancer cells
Reagent: siRNA pair against human genes
Time to read-out: 48 h transfection before cisplatin; time from cisplatin to read-out not stated
Conditions: cisplatin at a dose killing half of control-siRNA cells; exact dose and duration not given
Measurement: 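Cisplatin cell death as a shift from the 50% death seen with control siRNA; siRNAs toxic or growth-blocking alone scored 0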
Reading the numbers: two-siRNA summed score (-2 to +2): higher = both siRNAs protect from cisplatin killing; -2 means both sensitise; mean protection from cisplatin (shift in death): higher = protection from cisplatin killing
Rule for the call: 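Each siRNA scores 0 if harmful alone by LDH or WST-1, otherwise +1 if it reduces and -1 if it increases cisplatin killing; a gene is active when both siRNAs agree (sum +2 or -2)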
Meaning of the calls: active = both siRNAs shift cisplatin killing the same way; inactive = no consistent shift, or siRNA harmful alone
Shown is an unselected part of about 23,000 deposited reagents. Of all reagents, 455 (2%) were called active. 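Active includes both protection and sensitisation; some change values fall well beyond the stated -50 to +50 range.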 Further read-outs or replicates are left out here. The record does not give: the amount of reagent.

For FYB1, what was measured?
two-siRNA summed score (-2 to +2): 0; mean protection from cisplatin (shift in death) (%): 4.5; call: inactive

What did the screen give for HEY1?
two-siRNA summed score (-2 to +2): -1; mean protection from cisplatin (shift in death) (%): -17.9; call: inactive

For SLCO1B7, how do the results read?
two-siRNA summed score (-2 to +2): 1; mean protection from cisplatin (shift in death) (%): 4.8; call: inactive

For CCDC60, what was measured?
two-siRNA summed score (-2 to +2): 0; mean protection from cisplatin (shift in death) (%): -4.2; call: inactive

With GNA14, what was measured?
two-siRNA summed score (-2 to +2): 0; mean protection from cisplatin (shift in death) (%): -4.6; call: inactive

With GOLGA6L2, what was measured?
two-siRNA summed score (-2 to +2): 0; mean protection from cisplatin (shift in death) (%): 3.4; call: inactive

How did the screen score DCAF5?
two-siRNA summed score (-2 to +2): 0; mean protection from cisplatin (shift in death) (%): -1.8; call: inactive

What did the screen give for TRAPPC8?
two-siRNA summed score (-2 to +2): 1; mean protection from cisplatin (shift in death) (%): 14.5; call: inactive

What did the screen give for RBM15-AS1?
two-siRNA summed score (-2 to +2): 1; mean protection from cisplatin (shift in death) (%): 11; call: inactive

For SMO, what was measured?
two-siRNA summed score (-2 to +2): -1; mean protection from cisplatin (shift in death) (%): -2.4; call: inactive

3 entries already listed, sorted by “two-siRNA summed score (-2 to +2)”, highest first:
SLCO1B7 — two-siRNA summed score (-2 to +2) = 1; mean protection from cisplatin (shift in death) (%) = 4.8; call = inactive
CCDC60 — two-siRNA summed score (-2 to +2) = 0; mean protection from cisplatin (shift in death) (%) = -4.2; call = inactive
HEY1 — two-siRNA summed score (-2 to +2) = -1; mean protection from cisplatin (shift in death) (%) = -17.9; call = inactive

Next records follow.
How did the screen score LAP3?
two-siRNA summed score (-2 to +2): 0; mean protection from cisplatin (shift in death) (%): 13.6; call: inactive

What did the screen give for VPS35L?
two-siRNA summed score (-2 to +2): 0; mean protection from cisplatin (shift in death) (%): 1.7; call: inactive

What is on record for MIS18A?
two-siRNA summed score (-2 to +2): 0; mean protection from cisplatin (shift in death) (%): 10.2; call: inactive

For LOC441579, how do the results read?
two-siRNA summed score (-2 to +2): 1; mean protection from cisplatin (shift in death) (%): 15.5; call: inactive

What is on record for CHD3?
two-siRNA summed score (-2 to +2): 1; mean protection from cisplatin (shift in death) (%): 16.1; call: inactive

With LOC342346, what does the deposit list?
two-siRNA summed score (-2 to +2): 0; mean protection from cisplatin (shift in death) (%): -3.9; call: inactive

Which result is listed for LOC441073?
two-siRNA summed score (-2 to +2): 1; mean protection from cisplatin (shift in death) (%): 29.2; call: inactive

For SLC45A1, what was measured?
two-siRNA summed score (-2 to +2): 0; mean protection from cisplatin (shift in death) (%): 22.3; call: inactive

For SPANXN4, what was measured?
two-siRNA summed score (-2 to +2): 0; mean protection from cisplatin (shift in death) (%): 7.9; call: inactive

For LOC401207, what was measured?
two-siRNA summed score (-2 to +2): 0; mean protection from cisplatin (shift in death) (%): 7.2; call: inactive

How did the screen score ANKRD19P?
two-siRNA summed score (-2 to +2): 1; mean protection from cisplatin (shift in death) (%): 10.9; call: inactive
